Measured values as given in article doi:10.1101/2021.09.21.461272.
Read-outs that look alike come from different tables or passages of the source. Results are given in words; binding and its absence hold for the method and conditions named. In cells and extracts the contact can be indirect. Some results given as binding are weak or reduced against the parent protein; the word gives no strength. Where a sequence is shown, tags or fusion partners need not be part of it.

How the values were obtained:
Assay in all cases: co-IP
Rpn2-GFP (S. cerevisiae) [1] = biological target: T1, Rpn2-GFP (S. cerevisiae) (UniProt P32565)
T1 sequence: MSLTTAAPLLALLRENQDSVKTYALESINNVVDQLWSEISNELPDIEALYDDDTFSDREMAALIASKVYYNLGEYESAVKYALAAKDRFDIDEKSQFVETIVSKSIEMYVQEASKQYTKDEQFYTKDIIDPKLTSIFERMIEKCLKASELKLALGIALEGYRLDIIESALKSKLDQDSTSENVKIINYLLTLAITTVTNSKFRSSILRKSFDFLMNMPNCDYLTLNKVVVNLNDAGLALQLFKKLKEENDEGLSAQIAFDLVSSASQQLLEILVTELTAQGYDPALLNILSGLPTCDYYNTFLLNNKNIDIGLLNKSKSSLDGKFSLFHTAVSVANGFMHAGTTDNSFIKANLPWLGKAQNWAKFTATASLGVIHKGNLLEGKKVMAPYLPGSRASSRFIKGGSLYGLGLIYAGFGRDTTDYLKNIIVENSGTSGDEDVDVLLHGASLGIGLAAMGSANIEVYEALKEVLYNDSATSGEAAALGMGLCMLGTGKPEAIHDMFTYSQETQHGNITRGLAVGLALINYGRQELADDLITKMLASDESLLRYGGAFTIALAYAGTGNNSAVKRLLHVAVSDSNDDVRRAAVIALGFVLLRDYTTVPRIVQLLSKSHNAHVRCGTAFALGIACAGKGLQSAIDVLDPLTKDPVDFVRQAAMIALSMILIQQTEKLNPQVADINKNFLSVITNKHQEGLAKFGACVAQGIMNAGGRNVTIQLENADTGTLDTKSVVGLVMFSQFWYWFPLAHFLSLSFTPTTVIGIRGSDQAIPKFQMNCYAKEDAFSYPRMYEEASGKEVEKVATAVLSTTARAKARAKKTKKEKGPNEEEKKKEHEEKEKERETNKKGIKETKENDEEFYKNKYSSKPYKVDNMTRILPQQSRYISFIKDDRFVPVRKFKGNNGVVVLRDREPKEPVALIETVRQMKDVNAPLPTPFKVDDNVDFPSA

[2] = biological target: T2, Rpn5-yEGFP (S. cerevisiae) (UniProt Q12250)
T2 sequence: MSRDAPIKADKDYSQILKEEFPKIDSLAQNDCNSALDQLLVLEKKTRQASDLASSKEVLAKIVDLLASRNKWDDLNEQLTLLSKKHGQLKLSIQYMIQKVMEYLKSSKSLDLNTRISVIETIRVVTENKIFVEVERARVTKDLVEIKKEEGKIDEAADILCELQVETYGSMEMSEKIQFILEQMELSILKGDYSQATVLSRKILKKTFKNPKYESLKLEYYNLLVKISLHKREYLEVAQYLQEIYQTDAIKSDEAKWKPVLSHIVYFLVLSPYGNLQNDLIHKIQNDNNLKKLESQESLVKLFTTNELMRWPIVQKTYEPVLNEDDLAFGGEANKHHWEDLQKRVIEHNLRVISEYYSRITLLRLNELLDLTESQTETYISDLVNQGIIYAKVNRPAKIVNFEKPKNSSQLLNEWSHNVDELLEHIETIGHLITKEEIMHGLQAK

Rpn2-GFP (S. cerevisiae) [3] = biological target: T1, Rpn2-GFP (S. cerevisiae); remark: listed apart in the source
[4] = biological target: T2, Rpn5-yEGFP (S. cerevisiae); remark: listed apart in the source

- binding (Rpn2-GFP (S. cerevisiae) [1]): binds
- binding [2]: binds
- binding (Rpn2-GFP (S. cerevisiae) [3]): binds
- binding [4]: binds
B1: HA-Vps27 (protein, UniProt P40343 1-622)
chain: MSVSTPSELDALIEQATSESIPNGDLDLPIALEISDVLRSRRVNPKDSMRCIKKRILNTADNPNTQLSSWKLTNICVKNGGTPFIKEICSREFMDTMEHVILREDSNEELSELVKTILYELYVAFKNDSQLNYVAKVYDKLISRGIKFPEKLTLSNSPTAMFDSKTPADWIDSDACMICSKKFSLLNRKHHCRSCGGVFCQEHSSNSIPLPDLGIYEPVRVCDSCFEDYDLKRHDDSKKSKKHRHKRKKDRDYSTPEDEEELIRKAIELSLKESRNSASSEPIVPVVESKNEVKRQEIEEEEDPDLKAAIQESLREAEEAKLRSERQKASRQMQPQQPSPQPQPIHSVDLSDEEKDSIYMFASLVEKMKSRPLNEILEDSKLQNLAQRVFASKARLNYALNDKAQKYNTLIEMNGKISEIMNIYDRLLEQQLQSINLSQQYTLPQVPSDPYNYLTENVQNPAESYQTPPLQQLSSHQYKPQQDVSRQQSVKANSSPTTNIDHLKTIDVTPHAQQKPQSHVELAPSDPPYPKEEAEDEGTQAVQDEESSTQESRERPYPVETENGETSINKRPQGITRYDFPTVPARKFVQPESTVPLPASSSEIPIKEERPPSPQEELLIEL
